Experimental data published in patent US9403866B2, “Compositions and methods for increasing telomerase activity” (Telomerase Activation Sciences, Inc., priority 2009, dated 2016).
At least one structure is not confirmed: it was looked up by name or label, or the drawing left a doubt.

By UniProt entry, the sequences of proteins in these tests, tags left out. Where a name states a change or a piece, a line headed by the entry shows the natural chain unless it says otherwise.
UniProt O14746: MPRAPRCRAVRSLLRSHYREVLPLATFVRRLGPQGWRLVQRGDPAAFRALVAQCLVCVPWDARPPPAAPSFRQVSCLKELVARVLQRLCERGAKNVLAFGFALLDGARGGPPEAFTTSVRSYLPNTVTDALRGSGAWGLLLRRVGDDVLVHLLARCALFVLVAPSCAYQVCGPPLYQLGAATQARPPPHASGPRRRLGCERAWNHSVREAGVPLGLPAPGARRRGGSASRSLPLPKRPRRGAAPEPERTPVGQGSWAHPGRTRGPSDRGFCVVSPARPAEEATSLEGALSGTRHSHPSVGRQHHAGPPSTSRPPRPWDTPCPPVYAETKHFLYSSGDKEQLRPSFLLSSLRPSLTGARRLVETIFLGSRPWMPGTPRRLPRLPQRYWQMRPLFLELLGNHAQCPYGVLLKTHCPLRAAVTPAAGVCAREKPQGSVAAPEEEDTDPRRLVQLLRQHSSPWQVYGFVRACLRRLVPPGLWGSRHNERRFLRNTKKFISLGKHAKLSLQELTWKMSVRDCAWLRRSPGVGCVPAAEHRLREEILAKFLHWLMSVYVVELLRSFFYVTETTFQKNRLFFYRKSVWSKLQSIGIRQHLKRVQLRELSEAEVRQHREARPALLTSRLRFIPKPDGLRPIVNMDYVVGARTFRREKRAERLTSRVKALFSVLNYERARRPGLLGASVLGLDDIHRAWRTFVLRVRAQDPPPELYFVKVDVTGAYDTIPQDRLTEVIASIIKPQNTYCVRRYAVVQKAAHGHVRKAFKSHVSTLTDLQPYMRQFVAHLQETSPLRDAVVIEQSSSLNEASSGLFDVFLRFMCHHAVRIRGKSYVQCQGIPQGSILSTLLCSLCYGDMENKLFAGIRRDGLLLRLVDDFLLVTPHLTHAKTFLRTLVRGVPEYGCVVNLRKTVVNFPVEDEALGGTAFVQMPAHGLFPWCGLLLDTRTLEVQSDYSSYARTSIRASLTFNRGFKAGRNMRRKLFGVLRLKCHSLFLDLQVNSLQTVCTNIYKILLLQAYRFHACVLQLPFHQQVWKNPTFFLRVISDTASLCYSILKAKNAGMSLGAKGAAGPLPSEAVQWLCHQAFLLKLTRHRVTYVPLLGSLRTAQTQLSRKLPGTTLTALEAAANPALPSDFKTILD

Assays:
Type in all cases: cell-based
Set-up in all cases: host or cells: HEKneo-P (pooled neonatal human epidermal keratinocytes)
telomerase [1] = target: T1, telomerase (Homo sapiens, UniProt O14746); test: Keratinocyte cell/TRAP assay (HEKneo-P cells); settings: for Activity in in vitro HEK assay: 24 hr, 0.01 to 10 μM, vs vehicle control at peak of full dose curve
Excerpt: Harley et al., U.S. Pat. […] Harley et al., U.S. Pat. […] Non-treatment control (NT) was also included. […]

telomerase [2] = target: T1, telomerase; test: TRAP analysis of human brain pericytes; settings: 0.5 μM in water, total of 30 hr
telomerase [3] = target: T1, telomerase; test: Gel TRAP assay in human small airway epithelial cells (SAEC); settings: 1 μM or 0.1 μM, 48 hours, 0.2% ethanol
telomerase [4] = target: T1, telomerase; test: Gel TRAP assay in fibroblast cell line IMR-90; settings: IMR-90, 1 μM or 0.1 μM, 48 hours, 0.2% ethanol

| SMILES | Max fold increase of activity (telomerase [1]) | Activity in in vitro HEK assay (telomerase [1]) | increase in telomerase activity (telomerase [2]) | up-regulated telomerase activity (telomerase [3]) | up-regulation of telomerase activity (telomerase [4]) |
| --- | --- | --- | --- | --- | --- |
| CC(C)C(N)C(=O)OC1CC2C3(C)CC(O)C(C4(C)CCC(C(C)(C)O)O4)C3(C)CCC23CC32CCC(OC(=O)C(N)C(C)C)C(C)(C)C12 (stereo not drawn) [Compound 7, 2-(L)-Amino-3-methyl-butyric acid 6α-(2-amino-3-methyl-butyryloxy)-16β-dihydroxy-17-[5-(1-hydroxy-1-methyl-ethyl)-2-methyl-tetrahydro-furan-2-yl]-4,4,13,14-tetramethyl-tetradecahydro-cyclopropa[9,10]cyclopenta[a]phenanthren-3β-yl ester] | 4.8 fold | + (telomerase activation is 2 fold or more in comparison with vehicle control at the peak of the full dose curve.) | 2.8 fold | – | – |
| CCC(C)C(N)C(=O)OC1CCC23CC24CCC2(C)C(C5(C)CCC(C(C)(C)O)O5)C(O)CC2(C)C4CC(O)C3C1(C)C (stereo not drawn) [Compound 14] | 4.0 fold | + (telomerase activation is 2 fold or more in comparison with vehicle control at the peak of the full dose curve.) | – | – | – |
| CC(C)C(N)C(=O)OC1CC2C3(C)CC(O)C(C4(C)CCC(C(C)(C)O)O4)C3(C)CCC23CC32CCC(O)C(C)(C)C12 (stereo not drawn) [Compound 12] | 4.1 fold | + (telomerase activation is 2 fold or more in comparison with vehicle control at the peak of the full dose curve.) | – | 2-4 fold | not in the fibroblast derived cell IMR-90 |
